PubChem BioAssay AID1508597 | Cure First – 2020
Aim: 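Survival screen with siRNA in ovarian cancer cells derived from patients, with or without rucaparib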 (primary screen). Cells: human ovarian carcinoma lines grown from tumours: OCI-P5x (papillary serous) and OCI-C5x (clear cell). Reagent: siRNA pool against human genes, 1.25 pmol siRNA per well. Timing: 72 h or 96 h, depending on the cell culture. Challenge: rucaparib 20 µM (about IC30) or vehicle, present until read-out. Measurement: 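Luminescent ATP-based viability assay read 72 or 96 h after transfection, depending on culture, given as normalised percent viability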. Scale: viability, normalised: higher = more viable cells remaining. Active means: 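a well counts as a hit if its normalised viability is under 80 percent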. Meaning of the calls: active = viability under 80%; inactive = viability 80% or more.
Shown is an unselected part of about 2,100 reagents. 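Calls flag viability under 80% in either arm, not effects specific to rucaparib; the reference for percent is not stated.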 Unmarked entries are inactive. Not given: the 100% reference.

target	rucaparib or vehicle	cell line	technical replicate	viability, normalised (%)
PBRM1	Rucaparib	OCI-C5x (clear cell)	1	44.7 (active)
PBRM1	Rucaparib	OCI-C5x (clear cell)	2	32.2 (active)
PBRM1	Rucaparib	OCI-C5x (clear cell)	3	48 (active)
PBRM1	Rucaparib	OCI-P5x (serous)	1	49.3 (active)
PBRM1	Rucaparib	OCI-P5x (serous)	2	44.7 (active)
PBRM1	Rucaparib	OCI-P5x (serous)	3	30.3 (active)
PBRM1	Vehicle	OCI-C5x (clear cell)	1	28.9 (active)
PBRM1	Vehicle	OCI-C5x (clear cell)	2	29 (active)
PBRM1	Vehicle	OCI-C5x (clear cell)	3	44.2 (active)
PBRM1	Vehicle	OCI-P5x (serous)	1	50.7 (active)
PBRM1	Vehicle	OCI-P5x (serous)	2	53.5 (active)
PBRM1	Vehicle	OCI-P5x (serous)	3	77.1 (active)
DUSP1	Rucaparib	OCI-C5x (clear cell)	1	37.2 (active)
DUSP1	Rucaparib	OCI-C5x (clear cell)	2	31 (active)
DUSP1	Rucaparib	OCI-C5x (clear cell)	3	47.5 (active)
DUSP1	Rucaparib	OCI-P5x (serous)	1	66.4 (active)
DUSP1	Rucaparib	OCI-P5x (serous)	2	65 (active)
DUSP1	Rucaparib	OCI-P5x (serous)	3	71.4 (active)
DUSP1	Vehicle	OCI-C5x (clear cell)	1	51.8 (active)
DUSP1	Vehicle	OCI-C5x (clear cell)	2	52.7 (active)
DUSP1	Vehicle	OCI-C5x (clear cell)	3	34.4 (active)
DUSP1	Vehicle	OCI-P5x (serous)	1	58.8 (active)
DUSP1	Vehicle	OCI-P5x (serous)	2	66.9 (active)
DUSP1	Vehicle	OCI-P5x (serous)	3	53.5 (active)
ELP4	Rucaparib	OCI-C5x (clear cell)	1	55.1 (active)
ELP4	Rucaparib	OCI-C5x (clear cell)	2	41.2 (active)
ELP4	Rucaparib	OCI-C5x (clear cell)	3	56.9 (active)
ELP4	Rucaparib	OCI-P5x (serous)	1	65.6 (active)
ELP4	Rucaparib	OCI-P5x (serous)	2	73.8 (active)
ELP4	Rucaparib	OCI-P5x (serous)	3	83.6
ELP4	Vehicle	OCI-C5x (clear cell)	1	36.6 (active)
ELP4	Vehicle	OCI-C5x (clear cell)	2	73.1 (active)
ELP4	Vehicle	OCI-C5x (clear cell)	3	52.9 (active)
ELP4	Vehicle	OCI-P5x (serous)	1	55.5 (active)
ELP4	Vehicle	OCI-P5x (serous)	2	61.1 (active)
ELP4	Vehicle	OCI-P5x (serous)	3	74.9 (active)
MRE11	Rucaparib	OCI-C5x (clear cell)	1	71.2 (active)
MRE11	Rucaparib	OCI-C5x (clear cell)	2	61.2 (active)
MRE11	Rucaparib	OCI-C5x (clear cell)	3	66.8 (active)
MRE11	Rucaparib	OCI-P5x (serous)	1	88.9
MRE11	Rucaparib	OCI-P5x (serous)	2	113
MRE11	Rucaparib	OCI-P5x (serous)	3	81.7
MRE11	Vehicle	OCI-C5x (clear cell)	1	67.8 (active)
MRE11	Vehicle	OCI-C5x (clear cell)	2	50.4 (active)
MRE11	Vehicle	OCI-C5x (clear cell)	3	38.6 (active)
MRE11	Vehicle	OCI-P5x (serous)	1	76.8 (active)
MRE11	Vehicle	OCI-P5x (serous)	2	79.1 (active)
MRE11	Vehicle	OCI-P5x (serous)	3	90.4
EIF4A2	Rucaparib	OCI-C5x (clear cell)	1	31.9 (active)
EIF4A2	Rucaparib	OCI-C5x (clear cell)	2	38.8 (active)
EIF4A2	Rucaparib	OCI-C5x (clear cell)	3	29.5 (active)
EIF4A2	Rucaparib	OCI-P5x (serous)	1	53.2 (active)
EIF4A2	Rucaparib	OCI-P5x (serous)	2	45.9 (active)
EIF4A2	Rucaparib	OCI-P5x (serous)	3	56.2 (active)
EIF4A2	Vehicle	OCI-C5x (clear cell)	1	49.1 (active)
EIF4A2	Vehicle	OCI-C5x (clear cell)	2	42.1 (active)
EIF4A2	Vehicle	OCI-C5x (clear cell)	3	50 (active)
EIF4A2	Vehicle	OCI-P5x (serous)	1	52.1 (active)
EIF4A2	Vehicle	OCI-P5x (serous)	2	63.3 (active)
EIF4A2	Vehicle	OCI-P5x (serous)	3	58.7 (active)

Not a retest: 9 of the entries above.
target	rucaparib or vehicle	cell line	technical replicate	viability, normalised (%)
ELP4	Vehicle	OCI-P5x (serous)	3	74.9 (active)
MRE11	Rucaparib	OCI-C5x (clear cell)	1	71.2 (active)
MRE11	Rucaparib	OCI-C5x (clear cell)	2	61.2 (active)
MRE11	Rucaparib	OCI-C5x (clear cell)	3	66.8 (active)
MRE11	Rucaparib	OCI-P5x (serous)	1	88.9
MRE11	Rucaparib	OCI-P5x (serous)	2	113
MRE11	Rucaparib	OCI-P5x (serous)	3	81.7
MRE11	Vehicle	OCI-C5x (clear cell)	1	67.8 (active)
MRE11	Vehicle	OCI-C5x (clear cell)	2	50.4 (active)
